# Some entries share one result that the patent states for a list of compounds.
# System: PSMA+ PC-3 PIP tumor
# Experiment: Biodistribution test with prostate cancer model mouse
# Details: 30 minutes after the injection
smiles,measurement,value
O=C(O)CC[C@H](NC(=O)N[C@@H](CCCCNC(=O)N(Cc1cn(CCOCC[18F])nn1)c1ccncc1)C(=O)O)C(=O)O [Example 7-6],tumor intake rate (% ID/g),more than 10 % ID/g

# From patent US10870629B2, “18F-labelled compound for prostate cancer diagnosis, and use thereof” (FUTURECHEM CO., LTD., priority 2017, dated 2020)
